The exact form of at least one protein or probe is not confirmed. For some assays here: No signal at the amounts used counts as a negative. For some assays here: The comparison behind a weaker result is the experiment's own reference, which may not be listed here. For some assays here: At least one verdict was read from the data and is not stated in words by the source.
How the values were obtained:
Lef-1 + beta-catenin [1] = assay: competition with a labelled probe; conditions: 10 mM Hepes, 70 mM KCl, 1 mM DTT, 1 mM EDTA, 7.5 mM MgCl2, 4% glycerol, 8 ug/ml salmon sperm DNA, 50 fmol 32P probe, 30 min, protein translated in vitro
Lef-1 + beta-catenin [2] = assay: EMSA; conditions: 10 mM Hepes, 70 mM KCl, 1 mM DTT, 1 mM EDTA, 7.5 mM MgCl2, 4% glycerol, 8 ug/ml salmon sperm DNA; 50 fmol 32P probe, 30 min; protein translated in vitro; label: 32P (probe), unlabeled as competitor

Chains of the proteins cited; added tags and fusions are not shown. Chains listed by the source or under a name are the forms on record and can include a tag or linker.
Lef-1 + beta-catenin, one chain, as listed by the source, chain 2 of 2: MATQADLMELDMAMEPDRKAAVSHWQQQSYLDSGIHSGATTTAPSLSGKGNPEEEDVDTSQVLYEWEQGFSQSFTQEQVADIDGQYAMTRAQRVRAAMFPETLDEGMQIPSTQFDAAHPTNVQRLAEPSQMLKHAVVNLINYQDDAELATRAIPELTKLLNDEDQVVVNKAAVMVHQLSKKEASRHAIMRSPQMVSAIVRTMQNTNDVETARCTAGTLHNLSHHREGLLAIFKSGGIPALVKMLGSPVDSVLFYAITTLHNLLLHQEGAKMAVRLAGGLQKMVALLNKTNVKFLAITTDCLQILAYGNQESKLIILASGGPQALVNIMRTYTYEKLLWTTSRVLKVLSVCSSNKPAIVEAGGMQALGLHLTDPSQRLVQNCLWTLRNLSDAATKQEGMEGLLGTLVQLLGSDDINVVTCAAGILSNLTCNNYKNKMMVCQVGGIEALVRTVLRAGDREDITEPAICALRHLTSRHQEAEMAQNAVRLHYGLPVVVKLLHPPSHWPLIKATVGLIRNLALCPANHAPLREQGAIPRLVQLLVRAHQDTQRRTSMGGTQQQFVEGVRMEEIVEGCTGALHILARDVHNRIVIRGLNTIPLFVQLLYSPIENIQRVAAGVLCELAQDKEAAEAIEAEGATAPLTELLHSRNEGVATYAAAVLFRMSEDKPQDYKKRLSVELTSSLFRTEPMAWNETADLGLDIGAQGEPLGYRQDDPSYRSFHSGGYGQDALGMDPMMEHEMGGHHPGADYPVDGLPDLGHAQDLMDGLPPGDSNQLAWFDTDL
Lef-1 + beta-catenin, one chain, as listed by the source, chain 1 of 2: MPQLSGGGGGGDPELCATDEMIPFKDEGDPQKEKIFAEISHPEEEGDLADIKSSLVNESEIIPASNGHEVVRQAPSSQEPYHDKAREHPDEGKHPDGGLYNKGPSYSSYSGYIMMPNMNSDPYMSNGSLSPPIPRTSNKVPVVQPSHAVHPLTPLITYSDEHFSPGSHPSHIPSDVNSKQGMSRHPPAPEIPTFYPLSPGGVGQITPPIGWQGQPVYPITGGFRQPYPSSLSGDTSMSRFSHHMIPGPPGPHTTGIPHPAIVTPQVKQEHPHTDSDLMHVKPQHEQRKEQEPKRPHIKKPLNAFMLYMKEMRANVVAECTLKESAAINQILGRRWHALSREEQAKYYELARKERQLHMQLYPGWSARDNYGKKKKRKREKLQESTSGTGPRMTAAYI

| Sequence | binding result (Lef-1 + beta-catenin [1]; 300x excess vs CD1TOP) | other results |
| --- | --- | --- |
| ATCAAGACCAAAGCGGAAAGAAAA (double strand) [Hes-1 -528] |  | binding result (Lef-1 + beta-catenin [1]; vs CD1TOP): binds |
| CAGAAATACAAAGAGTCCTGTGTGA (double strand) [Notch-2 -2261] |  | binding result (Lef-1 + beta-catenin [1]; vs CD1TOP): binds more weakly |
| CCTTGGTAGCTTTGAACCTATGTAA (double strand) [Jagged-1 -1933] | binds |  |
| CCTTGGTAGGTGTCGACCTATGTAA (double strand) [Jagged-1 -1933 mutated] | no binding |  |
| CTCTGCCGGGCTTTGATCTTTGCTTAACAACA (double strand) [CD1TOP (cyclin D1 TOP)] |  | binding result (Lef-1 + beta-catenin [2]): binds |
| GGCCTGAGCCTTTGAAGCAGGAGGA (double strand) [Notch-2 -110] | binds |  |
| GGCCTGAGCGTGTCGAGCAGGAGGA (double strand) [Notch-2 -110 mutated] | no binding |  |
| TCCCCTTGGAATCAAAGCCCTGCAT (double strand) [Rfng -2481] |  | binding result (Lef-1 + beta-catenin [1]; vs CD1TOP, only Rfng site tested): binds |
| TGTCCACCCTCGACACGAAGTCGAT (double strand) [Jagged-1 -1635 mutated] | no binding |  |
| TGTCCACCCTTCAAAGGAAGTCGAT (double strand) [Jagged-1 -1635] | binds |  |
| TTTCCTTCTTTGACAGCACTGGT (double strand) [Notch-2 -689] |  | binding result (Lef-1 + beta-catenin [1]; vs CD1TOP): binds more weakly |

Source: publication PMC3060910
